Literature values as cited in patent US20040076968A1, “Method for detecting pre-disposition to hepatotoxicity” (priority 2000, published 2004).
Some of these results come from one statement about several compounds together. Some compounds share one range, which may span the group rather than tell each member.

Target: T1, UGT1A6*2 allelic variant (Homo sapiens, UniProt P19224, R184S/T181A)
T1 sequence (P19224 27-532 T181A/R184S): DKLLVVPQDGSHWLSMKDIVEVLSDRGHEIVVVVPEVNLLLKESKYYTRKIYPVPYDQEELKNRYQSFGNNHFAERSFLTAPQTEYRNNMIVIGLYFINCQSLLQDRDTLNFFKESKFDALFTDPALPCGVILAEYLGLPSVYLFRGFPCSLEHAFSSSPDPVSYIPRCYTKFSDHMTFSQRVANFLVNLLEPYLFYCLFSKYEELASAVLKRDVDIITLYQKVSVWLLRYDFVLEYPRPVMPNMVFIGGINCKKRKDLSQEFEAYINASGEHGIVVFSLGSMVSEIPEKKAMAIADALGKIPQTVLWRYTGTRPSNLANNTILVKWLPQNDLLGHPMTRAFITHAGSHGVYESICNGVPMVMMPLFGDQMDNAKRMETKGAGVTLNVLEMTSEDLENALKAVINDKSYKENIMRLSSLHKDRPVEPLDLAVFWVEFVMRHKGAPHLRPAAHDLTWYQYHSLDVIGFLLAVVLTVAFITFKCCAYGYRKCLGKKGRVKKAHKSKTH
Conditions: UGT1A6*2 (Thr181Ala, Arg 184Ser) expressed in COS cells, pH 6.4; cited from earlier work

In the case of O=c1cc(O)c2ccccc2o1 [4-hydroxycoumarin], the “rate of metabolism relative to the wild-type isoenzyme” value is given as 27-75%.
